Data reported in US10160783B2, “Neuroactive 13, 17-substituted steroids as modulators for GABA type-A receptors” (priority 2013, dated 2018).
At least one structure is not confirmed: it was looked up by name or label, or the drawing left a doubt.

Amino acid sequences for entries named in this document (tags omitted). A change or cut given only in a name is not applied to a line headed by its entry. Residues count along the entry.
UniProt P18508: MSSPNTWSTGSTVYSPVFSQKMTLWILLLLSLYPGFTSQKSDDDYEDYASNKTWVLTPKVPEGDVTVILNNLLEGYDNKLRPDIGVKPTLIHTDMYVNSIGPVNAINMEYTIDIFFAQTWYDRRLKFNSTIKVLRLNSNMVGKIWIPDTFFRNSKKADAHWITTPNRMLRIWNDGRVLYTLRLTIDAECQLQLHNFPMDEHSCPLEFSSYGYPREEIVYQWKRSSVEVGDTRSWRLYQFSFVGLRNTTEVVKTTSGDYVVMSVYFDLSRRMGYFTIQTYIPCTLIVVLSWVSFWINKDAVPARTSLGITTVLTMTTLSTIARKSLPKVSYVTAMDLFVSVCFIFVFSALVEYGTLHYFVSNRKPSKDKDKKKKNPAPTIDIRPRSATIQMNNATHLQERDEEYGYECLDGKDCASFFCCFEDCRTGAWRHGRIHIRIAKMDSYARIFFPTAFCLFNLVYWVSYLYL
UniProt P62813, 28-455, stated change not applied: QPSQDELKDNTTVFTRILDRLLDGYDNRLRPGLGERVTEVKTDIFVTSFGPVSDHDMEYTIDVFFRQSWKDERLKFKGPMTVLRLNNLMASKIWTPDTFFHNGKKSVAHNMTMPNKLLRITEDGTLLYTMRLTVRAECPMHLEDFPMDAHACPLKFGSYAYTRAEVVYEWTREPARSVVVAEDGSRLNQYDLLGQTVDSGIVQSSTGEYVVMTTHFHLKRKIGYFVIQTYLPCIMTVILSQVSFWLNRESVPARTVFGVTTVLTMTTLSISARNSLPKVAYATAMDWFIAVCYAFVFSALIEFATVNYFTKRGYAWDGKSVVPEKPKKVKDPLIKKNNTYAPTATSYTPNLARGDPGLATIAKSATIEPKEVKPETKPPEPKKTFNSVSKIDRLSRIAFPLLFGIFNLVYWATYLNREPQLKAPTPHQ
UniProt P63138, 26-474, stated change not applied: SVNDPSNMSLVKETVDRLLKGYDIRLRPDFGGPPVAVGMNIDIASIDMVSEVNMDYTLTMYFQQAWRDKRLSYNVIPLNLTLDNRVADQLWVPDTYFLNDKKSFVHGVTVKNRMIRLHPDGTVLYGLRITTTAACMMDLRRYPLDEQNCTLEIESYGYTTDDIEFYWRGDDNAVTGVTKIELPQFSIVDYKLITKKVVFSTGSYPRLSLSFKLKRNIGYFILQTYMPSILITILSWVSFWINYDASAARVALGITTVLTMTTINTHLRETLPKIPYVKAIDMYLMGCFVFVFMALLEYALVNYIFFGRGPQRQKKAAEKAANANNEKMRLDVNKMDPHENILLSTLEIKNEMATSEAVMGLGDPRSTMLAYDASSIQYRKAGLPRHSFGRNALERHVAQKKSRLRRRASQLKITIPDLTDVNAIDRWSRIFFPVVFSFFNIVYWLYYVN

Assays:
[1] = biological target: picrotoxin binding site on GABAA receptors; assay: [35S]-TBPS displacement (inhibition of [35S]-TBPS binding); settings: non-competitive displacement of [35S]-TBPS; ± SEM, duplicate experiments in triplicate
Experimental: The IC50 values for non-competitive displacers of [^35S]-TBPS from the picrotoxin binding site on GABAA receptors are reported in Table 1.
Results presented are from duplicate experiments performed in triplicate. Error limits are calculated as standard error of the mean. Methods used are known in the art (see Jiang, X., et al., Neurosteroid analogues. 9. Conformationally constrained pregnanes: structure-activity studies of 13,24-cyclo-18,21-dinorcholane analogues of the GABA modulatory and anesthetic steroids (3α,5α)- and […]. J. Med. Chem., 46: 5334-48 (2003)—the contents of which are hereby incorporated by reference in their entirety).

[2] = biological target: T1, rat α1β2γ2L type GABAA receptors expressed in Xenopus laevis oocytes (Rattus norvegicus, UniProt P18508+P62813+P63138, INS375LLRMFSFK); assay: Potentiation of GABA-mediated chloride currents and direct gating, oocyte electrophysiology; assay type: cell-based; settings: ± SEM, N ≥ 4
T1 construct: expressed in transfected cells; host or cells: Xenopus laevis oocytes
Experimental: The compounds of the present disclosure were evaluated for the ability to potentiate chloride currents mediated by 2 μM GABA at rat α1β2γ2L type GABAA receptors expressed in Xenopus laevis oocytes and the results are shown in Table 2.

**Q.** For `C=C[C@]12CC[C@H]3[C@@H](CC[C@H]4C[C@H](O)CC[C@@]43C)[C@@H]1CC[C@@H]2C(C)=O` [ZYC-75], which IC50 [1] is on record?
**A.** 27 ± 5 nM

**Q.** What about the “oocyte electrophysiology 0.1 μM: ratio of currents measured in the presence/absence of added compound” value ([2]; 0.1 μM compound, 2 μM GABA control response) of the same compound?
**A.** 1.93 ± 0.18

**Q.** What about the “oocyte electrophysiology 1 μM: ratio of currents measured in the presence/absence of added compound” value ([2]; 1 μM compound, 2 μM GABA control response) of the same compound?
**A.** 7.07 ± 1.89

**Q.** What about the “oocyte electrophysiology 10 μM: ratio of currents measured in the presence/absence of added compound” value ([2]; 10 μM compound, 2 μM GABA control response) of the same compound?
**A.** 12.02 ± 3.53

**Q.** And the “(gating) 10 μM: ratio of compound only current/2 μM GABA current” value ([2]; direct current gated by 10 μM compound in the absence of GABA)?
**A.** 0.20 ± 0.05
